Source: ChEMBL document CHEMBL4316610, “Synthesis and Biological Studies of (+)-Liquiditerpenoic Acid A (Abietopinoic Acid) and Representative Analogues: SAR Studies” (J Nat Prod, 2019)

System: SUP-B15
Experiment: Antiproliferative activity against human SUP-B15 cells after 72 hrs by CellTiter-Glo luminescent cell viability assay
Assay type: functional, cell-based
Settings: SUP-B15, 72 h

With `CN[C@@H]1C[C@H]2O[C@@](C)([C@@H]1OC)n1c3ccccc3c3c4c(c5c6ccccc6n2c5c31)C(=O)NC4` [STAUROSPORINE] as the compound, how does the EC50 read?
The EC50 was 550 nM.
